From article doi:10.1101/2025.02.25.640159
Results are given in words; binding and its absence hold for the method and conditions named. Binding seen in cells or lysates may run through a third protein. Here binding means that the protein was enriched with, or labelled near, the bait; the list need not be complete.

Target: RACK1A-GFP (RECEPTOR FOR … C KINASE 1A fused to GFP) (Arabidopsis thaliana) (UniProt O24456)
Assay: affinity purification with mass spectrometry

binding	Binder
binds	FSD2 (enzyme, UniProt Q9LU64 47-305) GVITAGFELKPPPYPLDALEPHMSRETLDYHWGKHHKTYVENLNKQILGTDLDALSLEEVVLLSYNKGNMLPAFNNAAQAWNHEFFWESIQPGGGGKPTGELLRLIERDFGSFEEFLERFKSAAASNFGSGWTWLAYKANRLDVANAVNPLPKEEDKKLVIVKTPNAVNPLVWDYSPLLTIDTWEHAYYLDFENRRAEYINTFMEKLVSWETVSTRLESAIARAVQREQEGTETEDEENPDDEVPEVYLDSDIDVSEVD
binds	FSD3 (enzyme, UniProt Q9FMX0 42-263) GGLKVEAYYGLKTPPYPLDALEPYMSRRTLEVHWGKHHRGYVDNLNKQLGKDDRLYGYTMEELIKATYNNGNPLPEFNNAAQVYNHDFFWESMQPGGGDTPQKGVLEQIDKDFGSFTNFREKFTNAALTQFGSGWVWLVLKREERRLEVVKTSNAINPLVWDDIPIICVDVWEHSYYLDYKNDRAKYINTFLNHLVSWNAAMSRMARAEAFVNLGEPNIPIA
binds	… SOD 1 (MSD1) (enzyme, UniProt O81235 30-231) TFTLPDLPYDYGALEPAISGEIMQIHHQKHHQAYVTNYNNALEQLDQAVNKGDASTVVKLQSAIKFNGGGHVNHSIFWKNLAPSSEGGGEPPKGSLGSAIDAHFGSLEGLVKKMSAEGAAVQGSGWVWLGLDKELKKLVVDTTANQDPLVTKGGSLVPLVGIDVWEHAYYLQYKNVRPEYLKNVWKVINWKYASEVYEKENN
binds	ASCORBATE PEROXIDASE 3 (enzyme, UniProt Q42564 1-287) MAAPIVDAEYLKEITKARRELRSLIANKNCAPIMLRLAWHDAGTYDAQSKTGGPNGSIRNEEEHTHGANSGLKIALDLCEGVKAKHPKITYADLYQLAGVVAVEVTGGPDIVFVPGRKDSNVCPKEGRLPDAKQGFQHLRDVFYRMGLSDKDIVALSGGHTLGRAHPERSGFDGPWTQEPLKFDNSYFVELLKGESEGLLKLPTDKTLLEDPEFRRLVELYAKDEDAFFRDYAESHKKLSELGFNPNSSAGKAVADSTILAQSAFGVAVAAAVVAFGYFYEIRKRMK
